Columns and labels:
SKOV3 cells = experiment: RNA-seq after ERX-208; type: cell-based
MCF-7 MT-ERα Y537S cells = experiment: RNA-sequencing and GO analyses after TX-542; type: cell-based; settings: 200 nM, 24 h

| SMILES | number of down regulated genes (SKOV3 cells) [genes] | number of upregulated genes (SKOV3 cells) [genes] | number of genes down regulated (MCF-7 MT-ERα Y537S cells; log 2FC<−0.5, p<0.01) [genes] | number of genes upregulated (MCF-7 MT-ERα Y537S cells; log 2FC>0.5) [genes] |
| --- | --- | --- | --- | --- |
| CC(C)COc1cc(C(=O)Nc2ccc(C(=O)N[C@H]3CC[C@H](C(=O)Nc4cnc5ccccc5c4)CC3)cc2OCC(C)C)ccc1NC(=O)c1ccc([N+](=O)[O-])c(OCCO)c1 [TK208] | 1018 | 1183 | – | – |
| NCCC(=O)Nc1ccc(C(=O)Nc2ccc(C(=O)NCCc3ccc4ccccc4c3)cc2OCC2CCCCC2)cc1OCCO [TX-542] | – | – | 1029 | 1189 |

Source: patent US12275685B2, “Oligo-benzamide analogs and their use in cancer treatment” (Board of Regents, The University of Texas System, priority 2018, dated 2025)
